# In the supplement of paper PMC3334620:
# The full ranking holds about 33,000 sequences; the median of “E-score (-0.5 to 0.5)” is about -0.015, and the highest 2% start at about 0.3. The list shows a part of the results.
# Biological target: T1, Abf1 (UniProt P14164)
# T1 sequence: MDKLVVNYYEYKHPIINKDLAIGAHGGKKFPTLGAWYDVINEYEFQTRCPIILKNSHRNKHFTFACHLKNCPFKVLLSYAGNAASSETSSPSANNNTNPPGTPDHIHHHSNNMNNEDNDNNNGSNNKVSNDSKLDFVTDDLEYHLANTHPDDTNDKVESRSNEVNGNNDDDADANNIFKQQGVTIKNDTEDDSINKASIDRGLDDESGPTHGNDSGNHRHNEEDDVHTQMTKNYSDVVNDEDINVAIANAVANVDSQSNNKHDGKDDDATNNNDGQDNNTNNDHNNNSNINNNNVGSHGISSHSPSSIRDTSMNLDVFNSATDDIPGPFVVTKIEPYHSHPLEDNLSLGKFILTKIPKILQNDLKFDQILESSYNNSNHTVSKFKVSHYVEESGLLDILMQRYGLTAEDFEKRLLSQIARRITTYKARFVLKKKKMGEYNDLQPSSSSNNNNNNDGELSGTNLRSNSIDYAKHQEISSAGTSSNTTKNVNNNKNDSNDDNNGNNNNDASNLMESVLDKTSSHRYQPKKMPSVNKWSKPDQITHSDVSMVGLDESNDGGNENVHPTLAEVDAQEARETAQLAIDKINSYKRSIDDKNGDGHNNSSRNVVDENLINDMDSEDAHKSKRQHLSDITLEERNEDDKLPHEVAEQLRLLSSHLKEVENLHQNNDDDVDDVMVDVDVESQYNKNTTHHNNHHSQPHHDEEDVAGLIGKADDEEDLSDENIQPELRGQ
# Test: PBM E-score (8-mer binding enrichment) (E-score (-0.5 to 0.5)); higher = stronger / more preferred TF binding
# Conditions: protein concentration: 200 nM; construct: GST-full length
# Method in brief: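 The E-score, a modified Wilcoxon-Mann-Whitney statistic, was computed by the Universal PBM Analysis Suite for every ungapped eight-base word pooled with its reverse complement. Scans behind it were normalised with masliner after bound GST-tagged yeast transcription factors were detected with fluorescent anti-GST. The proteins, at about 100-200 nM, had been applied to universal all-10-mer Agilent arrays made double-stranded by primer extension.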
row,Sequence,PBM E-score
1,AGAGATAT,0.0861
2,AATTTTCC,0.125
3,GAGTGCAC,-0.126
4,AGTGAAGA,0.129
5,GACAACAA,0.166
6,CAGATTAG,-0.103
7,AAAGAACA,0.0313
8,CTGTTGTA,-0.00395
9,TAACTTCA,0.115
10,GGGAGCCC,-0.302
11,AACATTTA,0.0911
12,AGCCATGA,0.104
13,ATCGCTCA,0.13
14,ATTCGATG,-0.0337
15,ATGACATA,0.401
16,CCGACCGG,-0.168
17,CGATGCAA,-0.201
18,ATTTGAGC,0.00156
19,ACAGCCCA,-0.108
20,CATAGGTA,-0.146
21,CAAGACGA,0.0998
22,CTGGCGGC,-0.212

row,Sequence,PBM E-score
1,ACGTTGAT,0.0436
2,AGTGTGCA,-0.0286
3,GTAGCGTA,-0.00254
4,AGATGCAG,-0.0468
5,AATTATCT,0.109
6,CTCTTATA,0.086
7,TCAATGGA,0.0383
8,ATACTTTG,0.0635
9,GGTCGTGA,0.195
10,GAGAACCC,-0.214
11,GACCCCAC,-0.0324
12,ACCTGACC,-0.107
13,AAAAACAC,0.159
14,CAGTGCAC,-0.0903
15,AAGAACAC,0.0202
16,AAATTGTG,-0.15
17,AAGGCTGA,-0.115
18,ACCGAACT,-0.149
19,CTGGTTTC,-0.0524
20,AGCACAAC,0.0445
21,CACGCTGA,0.0322
22,CAGCGCAG,-0.24

# Some values from the list:
# CTGTTGTA | PBM E-score: -0.00395
# GTAGCGTA | PBM E-score: -0.00254
# AAAAACAC | PBM E-score: 0.159
# GGGAGCCC | PBM E-score: -0.302

# Later entries.

row,Sequence,PBM E-score
1,CAAGACCC,-0.197
2,AAGACTCG,0.0329
3,GACGCCTA,-0.14
4,CCAGTGAA,-0.173
5,CCGCGGCG,-0.13
6,ACTTCATC,0.0566
7,GAAGGTAC,-0.0411
8,AGGTCGTG,0.2
9,CGATTGTC,0.118
10,CAAAAGCC,-0.186
11,AATACAGC,-0.00478
12,CTGATCGA,-0.213
13,TCCCCAAA,-0.0039
14,AGGCCACA,-0.155
15,ATCCCTCG,-0.17
16,AGGTAATA,0.161
17,GTGGCCCA,-0.163
18,CTGCATAA,0.0396
19,AAAGCCTT,-0.219
20,CGTGATAA,0.408
21,GAGGCCAC,-0.226
22,AGTTCACC,0.245

row,Sequence,PBM E-score
1,GTTTGGTA,0.113
2,CCTCACAG,-0.0389
3,ATTCTTCG,0.073
4,CAATGATA,0.322
5,CCTAGCAG,-0.101
6,CTACGCAA,-0.0747
7,AGTCTTAT,-0.0876
8,AGTTTACG,0.113
9,GTTGGTTA,0.0495
10,AGCCACGA,0.0221
11,CACCTGGG,-0.156
12,AGTGATGG,0.056
13,ACTTAGTG,0.144
14,AGGCCATA,-0.244
15,AGGATAAC,0.0176
16,ATCGATAC,0.111
17,CCATCGAC,-0.0625
18,ATGGTAAC,0.179
19,TAGAAAAA,-0.0291
20,AACTATGA,-0.0323
